According to publication PMC8771551:

Molecular target: Flag-KLF5-ΔN (C-terminus of KLF5 with PY motif)
Test: co-IP; CL1-0 cells cotransfected with α-Catulin-GFP and Flag-KLF5 wild-type or truncated mutants; anti-Flag immunoprecipitation, blot with anti-α-Catulin

binding: binds
B1: GFP-tagged full-length α-Catulin (protein, UniProt Q9UBT7 1-734)
chain: MAASPGPAGVGGAGAVYGSGSSGFALDSGLEIKTRSVEQTLLPLVSQITTLINHKDNTKKSDKTLQAIQRVGQAVNLAVGRFVKVGEAIANENWDLKEEINIACIEAKQAGETIAALTDITNLNHLESDGQITIFTDKTGVIKAARLLLSSVTKVLLLADRVVIKQIITSRNKVLATMERLEKVNSFQEFVQIFSQFGNEMVEFAHLSGDRQNDLKDEKKKAKMAAARAVLEKCTMMLLTASKTCLRHPNCESAHKNKEGVFDRMKVALDKVIEIVTDCKPNGETDISSISIFTGIKEFKMNIEALRENLYFQSKENLSVTLEVILERMEDFTDSAYTSHEHRERILELSTQARMELQQLISVWIQAQSKKTKSIAEELELSILKISHSLNELKKELHSTATQLAADLLKYHADHVVLKALKLTGVEGNLEALAEYACKLSEQKEQLVETCRLLRHISGTEPLEITCIHAEETFQVTGQQIISAAETLTLHPSSKIAKENLDVFCEAWESQISDMSTLLREINDVFEGRRGEKYGYLSLPKPMKNNANLKSLKPDKPDSEEQAKIAKLGLKLGLLTSDADCEIEKWEDQENEIVQYGRNMSSMAYSLYLFTRGEGPLKTSQDLIHQLEVFAAEGLKLTSSVQAFSKQLKDDDKLMLLLEINKLIPLCHQLQTVTKTSLQNKVFLKVDKCITKTRSMMALLVQLLSLCYKLLKKLQMENNGWVSVTNKDTMDSKT

Results are given in words; binding and its absence hold for the method and conditions named. Binding seen in cells or lysates may run through a third protein. A result given as binding can be weak or reduced; the word gives no strength. Sequences can lack the tags named with a protein.
